# In PubChem BioAssay (NCATS):
# Sequences of proteins named here, by UniProt entry; tags and fusion partners are left off. A change or cut given only in a name is not applied to a line headed by its entry.
# UniProt P21964: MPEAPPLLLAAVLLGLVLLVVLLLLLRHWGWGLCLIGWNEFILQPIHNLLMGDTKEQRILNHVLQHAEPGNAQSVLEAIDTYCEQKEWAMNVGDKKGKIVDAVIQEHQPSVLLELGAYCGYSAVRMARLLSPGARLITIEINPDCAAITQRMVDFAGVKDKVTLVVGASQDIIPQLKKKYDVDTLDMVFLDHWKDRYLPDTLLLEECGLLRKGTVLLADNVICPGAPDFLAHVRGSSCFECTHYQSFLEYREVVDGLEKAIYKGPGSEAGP
# UniProt P50135: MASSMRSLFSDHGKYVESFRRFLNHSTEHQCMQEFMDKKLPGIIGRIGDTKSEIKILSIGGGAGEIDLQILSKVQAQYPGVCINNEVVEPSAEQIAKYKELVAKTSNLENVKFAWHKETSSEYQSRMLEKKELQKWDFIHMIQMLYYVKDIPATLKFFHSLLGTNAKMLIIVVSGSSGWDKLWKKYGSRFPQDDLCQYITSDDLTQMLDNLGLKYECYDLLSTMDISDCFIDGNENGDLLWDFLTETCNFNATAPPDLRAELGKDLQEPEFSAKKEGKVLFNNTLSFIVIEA
# UniProt P40261: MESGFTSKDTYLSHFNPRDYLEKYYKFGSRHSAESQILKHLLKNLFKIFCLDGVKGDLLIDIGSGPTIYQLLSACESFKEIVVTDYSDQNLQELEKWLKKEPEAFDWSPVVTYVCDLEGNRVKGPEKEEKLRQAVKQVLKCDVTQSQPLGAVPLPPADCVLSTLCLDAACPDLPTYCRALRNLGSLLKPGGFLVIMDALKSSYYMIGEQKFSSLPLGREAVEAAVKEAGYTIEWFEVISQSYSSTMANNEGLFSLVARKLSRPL
# UniProt P11086: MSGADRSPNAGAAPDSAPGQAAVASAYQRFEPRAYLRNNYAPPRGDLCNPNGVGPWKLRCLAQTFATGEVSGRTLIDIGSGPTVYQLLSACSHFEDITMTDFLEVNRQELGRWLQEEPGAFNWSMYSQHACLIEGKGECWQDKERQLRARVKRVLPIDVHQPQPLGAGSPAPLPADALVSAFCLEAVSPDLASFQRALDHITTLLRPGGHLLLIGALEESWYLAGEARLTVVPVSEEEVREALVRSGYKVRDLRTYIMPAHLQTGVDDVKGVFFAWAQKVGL
# The other results are listed elsewhere or left out. These are further read-outs of the screen, such as a control signal, another cell line or another target. No call is given for them. For part of these data: Compounds called inactive in the main read-out are mostly missing here. The note in brackets gives the kind of curve behind each potency; many fits are weak.
# What was measured:
# [1] = qHTS Assay for Modulators of Human Peripheral Myelin Protein 22 (PMP22) Expression/Activity (AID 1967); details: Cell-based PMP22 reporter, dual-color luciferase ratio
# Outline: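 Readout is the corrected green/red luminescence ratio after 24 h compound exposure, normalised to untreated cells (0%). Engineered MSC80 mouse Schwann cells express green luciferase from the mouse Pmp22 promoter and red luciferase from EF-alpha as internal control.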
# [2] = target: Catechol O-methyltransferase (Homo sapiens) (UniProt P21964); assay: Confirmatory Screen for Target Class Profiling of Small Molecule Inhibitors of Methyltransferases (AID 1745852); details: MTase-Glo luminescence, SAH detection, recombinant enzyme; measured here: COMT inhibition potency
# [3] = target: Histamine N-methyltransferase (Homo sapiens) (UniProt P50135); assay: as above; details: MTase-Glo luminescence, SAH detection, recombinant enzyme; measured here: HNMT inhibition potency
# [4] = target: Nicotinamide N-methyltransferase (Homo sapiens) (UniProt P40261); assay: as above; details: MTase-Glo luminescence, SAH detection, recombinant enzyme; measured here: NNMT inhibition potency
# [5] = target: Phenylethanolamine N-methyltransferase (Homo sapiens) (UniProt P11086); assay: as above; details: MTase-Glo luminescence, SAH detection, recombinant enzyme; measured here: PNMT inhibition potency
# [6] = qHTS for identification of novel therapeutic agents for treatment of microphthalmiaassociated transcription factor (MiT) renal cell carcinoma (RCC) (AID 1963991); details: CellTiter-Glo, 48 h; for z-score: stronger effect = lower value
# Outline: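 Three TFE3-fusion RCC cell lines (UOK109, UOK124, UOK145), 500 cells/well, were exposed to the 1912-compound MIPE 4.0 library for 48 hours at 37 C. Viability was read by CellTiter-Glo luminescence, normalised to DMSO (100%) and empty wells (0%), with 11-concentration curve fits.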
# [7] = qHTS drug screen for cell cycle checkpoint inhibitors in PARPi-resistant BRCA-mutant ovarian cancer cell lines. (AID 1963452); details: PEO1/OlaR viability, CellTiter-Glo luminescence, 96 h; measured here: PEO4 viability
# Outline: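 PEO1, PEO4 and PEO1/OlaR ovarian cancer cells, 600 per well, exposed 96 h at 37C to a dilution series. Viability read by CellTiter-Glo luminescence, normalized to DMSO and empty wells; activity summarized as Z-AUC.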
# [8] = qHTS Validation Assay to Find Inhibitors of Chronic Active B-Cell Receptor Signaling (AID 485345); details: ABC-DLBCL cells, chronic BCR signaling reporter
# Outline: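 Read-out: ratio of filter-corrected green (IkappaBalpha fusion) to red (native) luciferase signal in doxycycline-induced TMD8 cells after 4 h at 37C. Titration spanned 46 uM–3 nM; Data were normalised to basal cells and 10 uM MG-132 wells.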
# [9] = Nrf2 qHTS screen for inhibitors: Validation (AID 493153); details: A549 ARE-Fluc reporter, 18-24 h; AC50: CellTiter-Fluor fluorescence read, measured here: cytotoxicity CellTiter-Fluor AC50; viability change: measured here: cytotoxicity max response
# Outline: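 In this counterscreened reporter format, each well gives two signals: CellTiter-Fluor fluorescence for cytotoxicity and ARE-luciferase luminescence for Nrf2 function. A549 ARE_Fluc cells in 5% FBS OPTI-MEM were exposed to compound titrations for 18-24 h.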
# [10] = qHTS Validation Assay for Iinhibitors of HIV-1 Budding by Blocking the Interaction of PTAP/TSG101 (AID 485342); details: TSG101-PTAP binding, fluorescence polarization, 4-point titration; measured here: FITC channel readout
# Outline: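 Fluorescence polarization of 50 nM FITC-PTAP peptide bound to 10 uM Tsg101 binding domain was read after 20 min room-temperature incubation with compounds, in 10 mM HEPES pH 7.5, 0.15 M NaCl, 0.01% Tween 20.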
# [11] = measured here: red reporter channel AC50, EF-alpha promoter control reporter in MSC80 mouse Schwann cells
# [12] = measured here: CBG/CBR ratio read-out
# [13] = measured here: CBR control luciferase (viability counter)
smiles,measurement,setting,value
O=C(O)Cc1ccc(O)c(O)c1,AC50,"[1]; measured here: green reporter channel AC50, mouse Pmp22 promoter in mouse Schwann cells","30.1 µM [falling, full curve, poor fit]"
same,AC50,[1]; [11],"23.9 µM [falling, full curve]"
same,IC50,[2],"8.63 µM [rising, partial curve]"
O=C(Nc1ccccc1)c1cnc2c(c1)N(C(=O)Cc1ccc(O)cc1)CCC2,IC50,[3],"9.87 µM [falling, partial curve]"
CCCSc1nc(N[C@@H]2C[C@H]2c2ccc(F)c(F)c2)c2nnn([C@@H]3C[C@H](OCCO)[C@@H](O)[C@H]3O)c2n1,IC50,[2],"30.4 µM [falling, partial curve]"
same,IC50,[4],"24.1 µM [falling, partial curve]"
same,IC50,[5],"34.1 µM [falling, single point]"
Oc1ccc2ccccc2c1SSc1c(O)ccc2ccccc12,IC50,[2],"5.44 µM [rising, partial curve, poor fit]"
same,z-score,"[6]; TFE3-RCC UOK109 viability, measured here: UOK109 Z-AUC",-0.0911
same,z-score,"[6]; TFE3-RCC viability, measured here: UOK124 Z-AUC",0.329
same,AC50,"[6]; TFE3-RCC viability, measured here: UOK124 cell viability","29.6 µM [falling, single point]"
same,z-score,"[6]; TFE3-RCC viability, measured here: UOK145 Z-AUC",-0.0732
same,AC50,"[6]; TFE3-RCC viability, measured here: UOK145 cell viability","37.2 µM [falling, single point]"
CN1CCCC2(C1)CN(C)c1ccc(C(=O)NCC3CCCCC3)cc12 (stereo not drawn),IC50,[3],"12.4 µM [falling, partial curve]"
CC(C)(O)C(=O)N1CCN(c2ccc(C(F)(F)F)c(C3=C(c4c[nH]c5ccccc45)C(=O)NC3=O)c2)CC1,IC50,[2],"24.1 µM [falling, partial curve]"
same,IC50,[4],"24.1 µM [falling, partial curve]"
same,IC50,[5],"24.1 µM [falling, partial curve]"
Cc1nc([C@](C)(O)CO)sc1-c1cnc(N)c(O[C@H](C)c2cc(F)ccc2-n2nccn2)c1,IC50,[2],"19.2 µM [falling, partial curve]"
same,AC50,[7],"1.38 µM [falling, partial curve, poor fit]"
CCOC(=O)N1CCN(/[N+]([O-])=N/Oc2ccc([N+](=O)[O-])cc2[N+](=O)[O-])CC1,AC50,[8]; [12],"16.4 µM [falling, single point]"
same,AC50,[8]; [13],"4.61 µM [rising, partial curve]"
same,AC50,[9],"9.2 µM [falling, partial curve]"
same,viability change,[9],-31%
same,IC50,[2],"1.93 µM [falling, full curve]"
OC[C@H]1O[C@@H](Oc2ccc(O)c3cccc(O)c23)[C@H](O)[C@@H](O)[C@@H]1O,IC50,[2],"2.98 µM [falling, full curve]"
same,IC50,[5],"10.6 µM [falling, partial curve]"
O=C(CCc1nnc2n(Cc3ccccc3Cl)c(=O)c3ccccc3n12)NCCc1c[nH]c2ccccc12,IC50,[3],"15.2 µM [falling, partial curve]"
NC[C@H](O)c1ccc(O)c(O)c1,AC50,[1]; [11],"95.3 µM [falling, single point]"
same,IC50,[2],"24.3 µM [rising, partial curve]"
N.N.N.N.N.N.N.N.N.N.N.N.N.N.O.O.[Ru+4].[Ru+5].[Ru+5],AC50,[8]; [13],"23.1 µM [rising, single point]"
same,AC50,[9],"13 µM [falling, partial curve]"
same,viability change,[9],-56.7%
same,IC50,[2],"24.3 µM [falling, partial curve, poor fit]"
same,IC50,[4],"30.6 µM [falling, partial curve, poor fit]"
COc1cc(/C=C(\C#N)C(=O)c2ccc(O)c(O)c2)cc(I)c1O,AC50,[1]; [11],"67.5 µM [falling, partial curve]"
same,AC50,[10],"56.2 µM [rising, partial curve]"
same,AC50,[8]; [12],"16.4 µM [falling, single point]"
same,AC50,[8]; [13],"18.4 µM [falling, single point]"
same,IC50,[2],"0.968 µM [rising, full curve]"
Cc1ccc2c(c1)c(=O)[nH]c1c(C(=O)NCc3ccc4c(c3)OCO4)sc(=S)n12,IC50,[2],"21.5 µM [falling, partial curve]"
same,IC50,[4],"8.57 µM [falling, full curve]"
same,IC50,[5],"19.2 µM [falling, partial curve]"
CCCCN(C)C(=O)c1c(C)sc2ccn(CCC)c(=O)c12,IC50,[2],"9.61 µM [falling, full curve]"
same,IC50,[4],"19.2 µM [falling, partial curve, poor fit]"
same,IC50,[5],"2.41 µM [falling, full curve]"
OCC1O[C@H]([S-])[C@H](O)[C@@H](O)[C@@H]1O.[Au+] (stereo partly drawn),AC50,[8]; [12],"8.2 µM [falling, partial curve]"
same,AC50,[8]; [13],"1.3 µM [falling, partial curve]"
same,IC50,[2],"27.3 µM [falling, partial curve]"

# 15 entries from above in a different format.
smiles	measurement	setting	value
N.N.N.N.N.N.N.N.N.N.N.N.N.N.O.O.[Ru+4].[Ru+5].[Ru+5]	AC50	[9]	13 µM [falling, partial curve]
same	viability change	[9]	-56.7%
same	IC50	[2]	24.3 µM [falling, partial curve, poor fit]
same	IC50	[4]	30.6 µM [falling, partial curve, poor fit]
COc1cc(/C=C(\C#N)C(=O)c2ccc(O)c(O)c2)cc(I)c1O	AC50	[1]; [11]	67.5 µM [falling, partial curve]
same	AC50	[10]	56.2 µM [rising, partial curve]
same	AC50	[8]; [12]	16.4 µM [falling, single point]
same	AC50	[8]; [13]	18.4 µM [falling, single point]
same	IC50	[2]	0.968 µM [rising, full curve]
Cc1ccc2c(c1)c(=O)[nH]c1c(C(=O)NCc3ccc4c(c3)OCO4)sc(=S)n12	IC50	[2]	21.5 µM [falling, partial curve]
same	IC50	[4]	8.57 µM [falling, full curve]
same	IC50	[5]	19.2 µM [falling, partial curve]
CCCCN(C)C(=O)c1c(C)sc2ccn(CCC)c(=O)c12	IC50	[2]	9.61 µM [falling, full curve]
same	IC50	[4]	19.2 µM [falling, partial curve, poor fit]
same	IC50	[5]	2.41 µM [falling, full curve]

# Some of the entries so far, with tabs:
smiles	measurement	setting	value
CCOC(=O)N1CCN(/[N+]([O-])=N/Oc2ccc([N+](=O)[O-])cc2[N+](=O)[O-])CC1	AC50	[9]	9.2 µM [falling, partial curve]
same	viability change	[9]	-31%
